Our source for the binding values is PMC6617940.

Results are given in words; binding and its absence hold for the method and conditions named. In cells and extracts the contact can be indirect. Some results given as binding are weak or reduced against the parent protein; the word gives no strength.

Assay [1] has as its target T1, Ubiquitin-like protein 4A (human (endogenous in PDAC cell lines SW1990, CFPAC-1, PANC-1, BxPC-3)) (UniProt P11441).
T1 sequence: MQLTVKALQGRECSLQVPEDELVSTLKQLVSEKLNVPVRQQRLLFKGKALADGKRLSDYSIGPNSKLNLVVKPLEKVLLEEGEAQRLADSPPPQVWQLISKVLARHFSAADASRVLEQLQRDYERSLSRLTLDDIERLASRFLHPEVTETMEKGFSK
Put plainly: co-IP; lysates of four PDAC cell lines (2 x 10^7 cells, polysome lysis buffer: 100 mM KCl, 4 mM MgCl2, 10 mM HEPES pH 7.0, 0.5% Nonidet P-40, 1 mM DTT); antibody (UBL4A or LAMP1) or control IgG on protein G agarose beads; lysate incubated with beads 2 h at RT; western blotting.

In assay [2] the target is T2, Lysosome associated membrane protein-1 (human (endogenous in PDAC cell lines SW1990, CFPAC-1, PANC-1, BxPC-3)) (UniProt P11279).
T2 sequence: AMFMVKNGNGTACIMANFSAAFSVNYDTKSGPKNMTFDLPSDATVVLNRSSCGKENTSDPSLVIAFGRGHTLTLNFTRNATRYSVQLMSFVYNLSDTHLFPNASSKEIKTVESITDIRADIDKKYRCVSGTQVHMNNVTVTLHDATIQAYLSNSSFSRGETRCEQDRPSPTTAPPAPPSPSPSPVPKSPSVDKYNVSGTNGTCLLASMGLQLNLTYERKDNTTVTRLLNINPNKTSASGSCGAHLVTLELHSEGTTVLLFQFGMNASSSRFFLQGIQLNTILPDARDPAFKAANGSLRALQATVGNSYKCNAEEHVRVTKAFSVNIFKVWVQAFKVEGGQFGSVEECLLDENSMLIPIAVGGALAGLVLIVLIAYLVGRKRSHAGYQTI
The assay is described as above.

B1: Lysosome associated membrane protein-1 (protein, UniProt P11279-1 29-417)
chain: AMFMVKNGNGTACIMANFSAAFSVNYDTKSGPKNMTFDLPSDATVVLNRSSCGKENTSDPSLVIAFGRGHTLTLNFTRNATRYSVQLMSFVYNLSDTHLFPNASSKEIKTVESITDIRADIDKKYRCVSGTQVHMNNVTVTLHDATIQAYLSNSSFSRGETRCEQDRPSPTTAPPAPPSPSPSPVPKSPSVDKYNVSGTNGTCLLASMGLQLNLTYERKDNTTVTRLLNINPNKTSASGSCGAHLVTLELHSEGTTVLLFQFGMNASSSRFFLQGIQLNTILPDARDPAFKAANGSLRALQATVGNSYKCNAEEHVRVTKAFSVNIFKVWVQAFKVEGGQFGSVEECLLDENSMLIPIAVGGALAGLVLIVLIAYLVGRKRSHAGYQTI
Turning to B1, in assay [1], the binding result is given as “binds”.

B2: Ubiquitin-like protein 4A (protein, UniProt P11441 1-157)
chain: MQLTVKALQGRECSLQVPEDELVSTLKQLVSEKLNVPVRQQRLLFKGKALADGKRLSDYSIGPNSKLNLVVKPLEKVLLEEGEAQRLADSPPPQVWQLISKVLARHFSAADASRVLEQLQRDYERSLSRLTLDDIERLASRFLHPEVTETMEKGFSK
With B2, the binding result in assay [2] is “binds”.
